Source: the supplement of paper PMC10849652
The other results are listed elsewhere or left out.

The chains behind the UniProt entries cited, without tags or fusion partners. Where a name states a change or a piece, a line headed by the entry shows the natural chain unless it says otherwise.
UniProt Q07812, whole entry, looked up: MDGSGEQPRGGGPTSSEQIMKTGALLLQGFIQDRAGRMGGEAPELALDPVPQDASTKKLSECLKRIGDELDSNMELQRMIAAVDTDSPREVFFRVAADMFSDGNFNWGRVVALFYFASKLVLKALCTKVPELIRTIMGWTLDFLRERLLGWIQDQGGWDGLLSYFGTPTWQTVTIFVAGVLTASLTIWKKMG
UniProt Q8NFC6: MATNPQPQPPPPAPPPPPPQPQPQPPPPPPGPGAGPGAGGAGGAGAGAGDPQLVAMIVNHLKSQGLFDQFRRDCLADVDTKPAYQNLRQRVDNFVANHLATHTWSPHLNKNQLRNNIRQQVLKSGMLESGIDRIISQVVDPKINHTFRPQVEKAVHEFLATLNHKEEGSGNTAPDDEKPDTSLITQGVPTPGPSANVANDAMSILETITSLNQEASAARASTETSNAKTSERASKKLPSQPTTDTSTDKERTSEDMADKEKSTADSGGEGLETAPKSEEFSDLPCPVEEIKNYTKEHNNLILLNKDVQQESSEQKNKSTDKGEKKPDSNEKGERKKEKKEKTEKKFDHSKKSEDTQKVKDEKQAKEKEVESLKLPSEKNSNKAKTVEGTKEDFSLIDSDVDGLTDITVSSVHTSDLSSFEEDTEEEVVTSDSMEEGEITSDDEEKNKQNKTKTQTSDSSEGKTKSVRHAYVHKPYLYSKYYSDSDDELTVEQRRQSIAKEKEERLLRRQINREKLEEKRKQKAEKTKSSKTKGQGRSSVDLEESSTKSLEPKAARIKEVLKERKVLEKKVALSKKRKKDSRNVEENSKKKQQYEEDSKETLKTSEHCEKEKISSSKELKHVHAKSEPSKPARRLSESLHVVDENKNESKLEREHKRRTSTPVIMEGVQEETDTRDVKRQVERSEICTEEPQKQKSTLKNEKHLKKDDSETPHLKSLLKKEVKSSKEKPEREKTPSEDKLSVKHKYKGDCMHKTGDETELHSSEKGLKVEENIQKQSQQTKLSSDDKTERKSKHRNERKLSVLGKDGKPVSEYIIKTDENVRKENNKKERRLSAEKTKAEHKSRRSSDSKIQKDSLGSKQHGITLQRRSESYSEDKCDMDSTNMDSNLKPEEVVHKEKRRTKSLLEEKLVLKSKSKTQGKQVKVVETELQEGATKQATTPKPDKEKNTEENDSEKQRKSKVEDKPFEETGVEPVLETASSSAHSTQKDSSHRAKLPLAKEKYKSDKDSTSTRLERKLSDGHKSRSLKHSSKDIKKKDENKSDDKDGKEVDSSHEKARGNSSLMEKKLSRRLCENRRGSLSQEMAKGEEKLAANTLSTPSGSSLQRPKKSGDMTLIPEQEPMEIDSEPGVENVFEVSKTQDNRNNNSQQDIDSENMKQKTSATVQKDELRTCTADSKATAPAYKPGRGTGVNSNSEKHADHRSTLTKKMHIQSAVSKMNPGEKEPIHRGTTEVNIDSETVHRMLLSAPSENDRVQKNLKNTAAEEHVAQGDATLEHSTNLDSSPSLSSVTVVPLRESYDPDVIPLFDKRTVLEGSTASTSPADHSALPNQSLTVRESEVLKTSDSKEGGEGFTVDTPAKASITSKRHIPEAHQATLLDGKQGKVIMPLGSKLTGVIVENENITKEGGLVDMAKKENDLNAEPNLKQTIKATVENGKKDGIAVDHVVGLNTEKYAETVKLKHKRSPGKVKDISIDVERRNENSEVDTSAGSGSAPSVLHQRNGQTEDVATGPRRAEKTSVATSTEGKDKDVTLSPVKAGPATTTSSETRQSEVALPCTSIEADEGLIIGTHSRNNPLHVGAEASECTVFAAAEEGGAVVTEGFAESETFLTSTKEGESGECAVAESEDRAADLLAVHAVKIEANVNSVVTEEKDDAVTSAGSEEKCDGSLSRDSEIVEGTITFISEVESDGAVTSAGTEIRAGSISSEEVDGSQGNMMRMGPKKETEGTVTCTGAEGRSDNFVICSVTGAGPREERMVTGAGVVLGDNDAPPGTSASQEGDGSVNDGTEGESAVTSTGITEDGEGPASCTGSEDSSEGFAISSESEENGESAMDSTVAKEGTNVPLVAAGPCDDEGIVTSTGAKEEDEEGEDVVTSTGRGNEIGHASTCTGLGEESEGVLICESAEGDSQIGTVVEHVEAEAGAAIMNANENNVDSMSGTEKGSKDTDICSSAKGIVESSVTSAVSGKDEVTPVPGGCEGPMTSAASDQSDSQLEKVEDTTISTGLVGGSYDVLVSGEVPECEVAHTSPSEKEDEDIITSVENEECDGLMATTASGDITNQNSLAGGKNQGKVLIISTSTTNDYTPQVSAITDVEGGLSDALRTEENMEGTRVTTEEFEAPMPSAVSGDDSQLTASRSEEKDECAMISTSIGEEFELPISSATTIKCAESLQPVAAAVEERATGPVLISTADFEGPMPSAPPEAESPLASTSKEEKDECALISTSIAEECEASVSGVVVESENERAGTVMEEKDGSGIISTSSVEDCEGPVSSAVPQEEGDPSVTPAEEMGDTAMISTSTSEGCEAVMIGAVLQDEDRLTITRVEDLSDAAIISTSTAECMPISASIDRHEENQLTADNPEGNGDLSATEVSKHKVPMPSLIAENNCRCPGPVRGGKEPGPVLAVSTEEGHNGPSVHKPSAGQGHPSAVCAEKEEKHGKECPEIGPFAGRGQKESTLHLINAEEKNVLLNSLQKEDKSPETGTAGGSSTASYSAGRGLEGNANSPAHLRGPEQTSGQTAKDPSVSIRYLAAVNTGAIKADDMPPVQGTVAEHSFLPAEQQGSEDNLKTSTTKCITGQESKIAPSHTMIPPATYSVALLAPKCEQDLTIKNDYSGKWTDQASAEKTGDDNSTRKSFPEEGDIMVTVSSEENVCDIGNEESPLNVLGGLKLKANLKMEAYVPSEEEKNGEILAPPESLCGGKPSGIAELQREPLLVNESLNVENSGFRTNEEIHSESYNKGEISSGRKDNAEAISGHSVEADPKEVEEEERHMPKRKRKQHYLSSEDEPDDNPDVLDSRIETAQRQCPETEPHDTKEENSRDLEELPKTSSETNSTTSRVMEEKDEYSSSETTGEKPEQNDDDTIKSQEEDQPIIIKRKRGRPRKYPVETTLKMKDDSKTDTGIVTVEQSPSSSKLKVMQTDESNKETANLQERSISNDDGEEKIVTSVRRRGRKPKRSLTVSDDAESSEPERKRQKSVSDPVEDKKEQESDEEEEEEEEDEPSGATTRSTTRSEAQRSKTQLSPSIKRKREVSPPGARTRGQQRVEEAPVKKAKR
UniProt Q9UL45: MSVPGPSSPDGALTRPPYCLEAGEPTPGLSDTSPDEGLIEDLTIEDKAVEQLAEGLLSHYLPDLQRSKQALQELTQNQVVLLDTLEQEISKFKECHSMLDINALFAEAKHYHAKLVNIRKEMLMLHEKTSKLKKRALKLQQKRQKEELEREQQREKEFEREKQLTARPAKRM
UniProt P53004: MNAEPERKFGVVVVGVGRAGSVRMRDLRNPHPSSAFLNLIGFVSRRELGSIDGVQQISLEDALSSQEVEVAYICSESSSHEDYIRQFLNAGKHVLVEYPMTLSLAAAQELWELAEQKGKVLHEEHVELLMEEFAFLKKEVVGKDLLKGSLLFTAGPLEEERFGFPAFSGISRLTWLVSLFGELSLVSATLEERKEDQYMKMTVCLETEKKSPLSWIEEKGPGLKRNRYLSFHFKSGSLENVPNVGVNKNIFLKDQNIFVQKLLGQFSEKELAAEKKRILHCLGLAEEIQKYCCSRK
UniProt Q9Y276: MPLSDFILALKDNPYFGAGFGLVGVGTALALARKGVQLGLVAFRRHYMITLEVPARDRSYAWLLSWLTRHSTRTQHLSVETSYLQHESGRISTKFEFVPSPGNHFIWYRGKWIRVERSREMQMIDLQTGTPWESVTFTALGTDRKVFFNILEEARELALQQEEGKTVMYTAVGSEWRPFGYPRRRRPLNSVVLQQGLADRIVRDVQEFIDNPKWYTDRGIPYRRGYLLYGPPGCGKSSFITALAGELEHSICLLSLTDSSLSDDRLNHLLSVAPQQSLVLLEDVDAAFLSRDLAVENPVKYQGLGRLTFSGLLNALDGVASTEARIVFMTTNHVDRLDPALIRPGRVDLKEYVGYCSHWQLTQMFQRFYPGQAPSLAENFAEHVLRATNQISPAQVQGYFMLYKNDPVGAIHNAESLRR
UniProt Q9P287, whole entry, looked up: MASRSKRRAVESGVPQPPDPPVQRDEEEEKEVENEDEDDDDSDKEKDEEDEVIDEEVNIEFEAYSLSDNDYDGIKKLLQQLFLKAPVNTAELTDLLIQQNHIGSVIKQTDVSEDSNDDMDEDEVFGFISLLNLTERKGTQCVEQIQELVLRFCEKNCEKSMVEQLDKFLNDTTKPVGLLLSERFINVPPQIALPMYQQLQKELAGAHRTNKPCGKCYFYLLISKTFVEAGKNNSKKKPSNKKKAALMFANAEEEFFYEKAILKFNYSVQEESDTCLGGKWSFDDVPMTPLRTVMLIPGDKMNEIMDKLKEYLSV
UniProt Q92560: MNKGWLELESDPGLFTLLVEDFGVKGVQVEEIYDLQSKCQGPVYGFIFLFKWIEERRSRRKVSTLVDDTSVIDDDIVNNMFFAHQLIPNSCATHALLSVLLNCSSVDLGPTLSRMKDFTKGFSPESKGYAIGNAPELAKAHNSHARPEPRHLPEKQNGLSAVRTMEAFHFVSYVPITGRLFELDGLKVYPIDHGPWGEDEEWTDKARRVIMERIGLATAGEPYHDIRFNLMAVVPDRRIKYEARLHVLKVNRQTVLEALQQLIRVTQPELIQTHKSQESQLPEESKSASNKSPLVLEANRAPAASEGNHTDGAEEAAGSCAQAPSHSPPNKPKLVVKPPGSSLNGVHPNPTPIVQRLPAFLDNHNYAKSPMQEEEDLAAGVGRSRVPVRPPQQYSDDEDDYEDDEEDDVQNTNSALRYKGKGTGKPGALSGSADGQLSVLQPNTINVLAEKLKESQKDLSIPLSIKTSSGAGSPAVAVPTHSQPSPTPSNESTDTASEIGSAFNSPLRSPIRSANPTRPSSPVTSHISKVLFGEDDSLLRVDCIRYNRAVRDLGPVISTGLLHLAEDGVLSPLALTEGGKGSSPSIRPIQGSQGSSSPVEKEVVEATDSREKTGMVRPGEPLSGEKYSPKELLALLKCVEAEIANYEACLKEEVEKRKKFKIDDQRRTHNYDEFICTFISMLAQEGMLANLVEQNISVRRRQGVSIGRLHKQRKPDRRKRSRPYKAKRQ
UniProt Q9UHR4: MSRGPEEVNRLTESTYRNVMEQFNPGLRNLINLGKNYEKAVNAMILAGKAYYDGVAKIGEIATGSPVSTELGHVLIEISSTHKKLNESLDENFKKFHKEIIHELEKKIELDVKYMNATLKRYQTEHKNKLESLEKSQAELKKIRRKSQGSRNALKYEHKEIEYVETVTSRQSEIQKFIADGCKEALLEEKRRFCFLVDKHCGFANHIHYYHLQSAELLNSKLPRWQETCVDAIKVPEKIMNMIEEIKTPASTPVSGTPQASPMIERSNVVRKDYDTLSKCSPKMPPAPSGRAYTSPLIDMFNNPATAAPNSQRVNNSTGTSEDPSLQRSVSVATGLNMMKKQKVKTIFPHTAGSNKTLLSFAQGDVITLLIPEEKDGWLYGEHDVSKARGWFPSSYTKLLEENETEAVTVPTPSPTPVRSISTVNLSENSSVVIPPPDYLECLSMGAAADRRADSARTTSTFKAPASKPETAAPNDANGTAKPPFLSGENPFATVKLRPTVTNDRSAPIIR
UniProt Q5VW32: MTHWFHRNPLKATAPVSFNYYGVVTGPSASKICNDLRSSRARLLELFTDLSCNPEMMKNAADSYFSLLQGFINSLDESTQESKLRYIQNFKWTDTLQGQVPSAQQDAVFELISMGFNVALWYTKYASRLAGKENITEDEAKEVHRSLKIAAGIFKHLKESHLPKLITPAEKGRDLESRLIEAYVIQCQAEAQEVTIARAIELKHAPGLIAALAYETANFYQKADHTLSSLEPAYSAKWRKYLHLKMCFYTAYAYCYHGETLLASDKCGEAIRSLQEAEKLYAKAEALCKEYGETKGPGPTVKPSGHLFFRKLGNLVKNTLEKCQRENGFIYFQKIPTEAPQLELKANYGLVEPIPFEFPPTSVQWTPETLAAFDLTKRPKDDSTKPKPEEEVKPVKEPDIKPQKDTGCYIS
UniProt P12694: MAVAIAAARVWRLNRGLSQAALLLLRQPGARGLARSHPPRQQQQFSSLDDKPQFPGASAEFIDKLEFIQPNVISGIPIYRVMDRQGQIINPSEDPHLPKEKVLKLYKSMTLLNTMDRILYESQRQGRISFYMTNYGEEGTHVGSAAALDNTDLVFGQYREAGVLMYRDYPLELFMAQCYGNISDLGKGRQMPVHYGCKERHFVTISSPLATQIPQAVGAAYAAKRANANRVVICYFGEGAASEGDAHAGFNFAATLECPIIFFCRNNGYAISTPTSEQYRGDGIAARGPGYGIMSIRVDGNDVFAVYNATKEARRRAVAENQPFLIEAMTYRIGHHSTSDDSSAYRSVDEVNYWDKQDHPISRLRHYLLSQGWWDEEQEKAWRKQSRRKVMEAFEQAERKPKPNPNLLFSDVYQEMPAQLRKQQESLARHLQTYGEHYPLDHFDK

Key:
Assay in all cases: log2 fold change, soluble protein after heating vs DMSO (PISA); higher = thermal stabilisation; K562 lysate, 10 uM; active = over 0.2 and 3.5 SD of the protein, either way, in both replicates (recomputed)
erlotinib = compound: C#Cc1cccc(Nc2ncnc3cc(OCCOC)c(OCCOC)cc23)c1 [erlotinib]
In short: (§1)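 Log-two fold change in thermal stability relative to solvent controls is reported from duplicates. For each sample, crude K562 extract from dounce-homogenised pellets in PBS pH 7.4 with 1 mM MgCl2, at 1 mg/mL protein, was treated with 10 μM compound for 30 min. Aliquots heated for 3 min across 48°C-58°C were pooled, brought to 0.5% NP-40 at 4°C and cleared at 21,000xg for 90 min. The supernatant was quantified by TMTpro 16plex LC-MS/MS with channel sums equalised.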

[1] = compound: C/C(=N\NC(=O)C1=CC(=CC=C1)S(=O)(=O)N2CCOCC2)/C3=C(C=CC(=C3)Cl)O
In short: as §1

[2] = compound: C1=CC(=CC=C1C2=NC3=C(N2)C=C(C=C3)C(=O)N)OC4=CC=C(C=C4)Cl
In short: as §1

[3] = compound: C1=CC2=C(C=CC(=C2)/C=C\3/C(=O)NC(=NCC4=CC=CS4)S3)N=C1
In short: as §1

[4] = compound: C1=CC2=NC=CN=C2C=C1/C=C/3\C(=O)NC(=O)S3
In short: as §1

[5] = compound: C1=CC=C(C=C1)C2=NC(=C(N2)C3=CC=NC=C3)C4=CC(=C(C=C4)Cl)O
In short: as §1

[6] = compound: C1=CC=C2C(=C1)C3=NNC4=CC=CC(=C43)C2=O
In short: as §1

[7] = compound: C1CCN(C1)C(=O)NC2=CC=CC(=C2)NC3=NC=C(C(=N3)NCCC4=CN=CN4)Br
In short: as §1

[8] = compound: C1CN(CCC1(CC2=CC=C(C=C2)Cl)N)C3=NC=NC4=C3C=CN4
In short: as §1

IRAK-1-4 Inhibitor I = compound: C1COCCN1CCN2C3=CC=CC=C3N=C2NC(=O)C4=CC(=CC=C4)[N+](=O)[O-] [IRAK-1-4 Inhibitor I]
In short: as §1

ibrutinib = compound: C=CC(=O)N1CCC[C@@H](n2nc(-c3ccc(Oc4ccccc4)cc3)c3c(N)ncnc32)C1 [ibrutinib]
In short: as §1

[9] = compound: CC(=O)c1cnc2ccc(-c3cc(Cl)c(O)c(Cl)c3)nc2c1N[C@H]1CC[C@H](CN(C)C)CC1
In short: as §1

ralimetinib = compound: CC(C)(C)Cn1c(N)nc2ccc(-c3[nH]c(C(C)(C)C)nc3-c3ccc(F)cc3)nc21 [ralimetinib]
In short: as §1

[10] = compound: CC(C)(O)CC(=O)NCCn1ccc2ncnc(Nc3ccc(Oc4cccc(C(F)(F)F)c4)c(Cl)c3)c21
In short: as §1

[11] = compound: CC(C)C1=C2N=C(C=C(N2N=C1)NCC3=CC=CC=C3)NCCCCCCN
In short: as §1

[12] = compound: CC1=C(C(CC(=O)N1)C2=CC=C(C=C2)C(F)(F)F)C(=O)NC3=C(C=C4C(=C3)C=NN4)F
In short: as §1

[13] = compound: CC1=C(C2=C(C=C1)C(=O)C3=CC=CC=C3N2CCCN)C
In short: as §1

[14] = compound: CC1=C(C=C(C=C1)NC(=O)C2=CC(=CC=C2)C(C)(C)C#N)NC3=CC4=C(C=C3)N=CN(C4=O)C
In short: as §1

[15] = compound: CC1=C(C=C(C=C1)NC(=O)C2=CC(=CC=C2)N(C)C)NC(=O)C3=CC=C(C=C3)O
In short: as §1

[16] = compound: CC1=CC=C(C=C1)SC2=C3C=C(SC3=CN=C2)C(=O)N
In short: as §1

Measured: log2 fold change

BACH1 (UniProt O14867)
inactive: erlotinib 0.033 | [1] 0.005 | [2] 0.002 | [3] 0.02 | [4] 0.013 | [5] 0.038 | [6] 0.006 | [7] -0.031 | [8] 0.023 | IRAK-1-4 Inhibitor I 0.027 | ibrutinib -0.066 | [9] 0.016 | ralimetinib -0.003 | [10] -0.039 | [11] -0.007 | [12] 0.043 | [13] 0.028 | [14] 0.011 | [15] -0.013 | [16] -0.01

BAX isoform 2 (UniProt Q07812)
inactive: erlotinib -0.018 | [1] -0.032 | [2] 0.047 | [3] -0.043 | [4] -0.046 | [5] -0.025 | [6] -0.014 | [7] -0.037 | [8] -0.011 | IRAK-1-4 Inhibitor I 0.05 | ibrutinib -0.019 | [9] -0.037 | ralimetinib -0.013 | [10] -0.031 | [11] -0.027 | [12] 0.054 | [13] -0.01 | [14] 0.011 | [15] 0.028 | [16] 0.02

BOD1L1 (UniProt Q8NFC6)
inactive: erlotinib -0.015 | [1] -0.011 | [2] 0.05 | [3] 0.006 | [4] -0.021 | [5] -0.002 | [6] -0.016 | [7] -0.006 | [8] -0.001 | IRAK-1-4 Inhibitor I 0.001 | ibrutinib 0.012 | [9] -0.013 | ralimetinib -0.001 | [10] -0.031 | [11] 0.014 | [12] -0.013 | [13] -0.021 | [14] 0.002 | [15] 0.014 | [16] -0.018

BLOC1S6 (UniProt Q9UL45)
inactive: erlotinib -0.008 | [1] 0.007 | [2] 0.029 | [3] 0.027 | [4] 0.001 | [5] 0.002 | [6] -0.004 | [7] 0.093 | [8] -0.01 | IRAK-1-4 Inhibitor I -0.031 | ibrutinib 0.156 | [9] -0.07 | ralimetinib 0.015 | [10] 0.061 | [11] -0.029 | [12] 0.014 | [13] -0.033 | [14] -0.001 | [15] -0.017 | [16] 0.012

Taken from the results shown (two entries):
BOD1L1 (UniProt Q8NFC6)
inactive: erlotinib -0.015 | [1] -0.011 | [2] 0.05 | [3] 0.006 | [4] -0.021 | [5] -0.002 | [6] -0.016 | [7] -0.006 | [8] -0.001 | IRAK-1-4 Inhibitor I 0.001 | ibrutinib 0.012 | [9] -0.013 | ralimetinib -0.001 | [10] -0.031 | [11] 0.014 | [12] -0.013 | [13] -0.021 | [14] 0.002 | [15] 0.014 | [16] -0.018

BLOC1S6 (UniProt Q9UL45)
inactive: erlotinib -0.008 | [1] 0.007 | [2] 0.029 | [3] 0.027 | [4] 0.001 | [5] 0.002 | [6] -0.004 | [7] 0.093 | [8] -0.01 | IRAK-1-4 Inhibitor I -0.031 | ibrutinib 0.156 | [9] -0.07 | ralimetinib 0.015 | [10] 0.061 | [11] -0.029 | [12] 0.014 | [13] -0.033 | [14] -0.001 | [15] -0.017 | [16] 0.012

More results

BLVRA (UniProt P53004)
inactive: erlotinib 0.006 | [1] 0.027 | [2] 0.001 | [3] -0.01 | [4] 0.012 | [5] -0.023 | [6] 0.011 | [7] -0.009 | [8] 0.017 | IRAK-1-4 Inhibitor I 0.027 | ibrutinib 0.002 | [9] 0.004 | ralimetinib -0.015 | [10] 0.018 | [11] -0.002 | [12] -0.004 | [13] 0.014 | [14] -0.008 | [15] -0.014 | [16] 0.008

BCS1L (UniProt Q9Y276)
inactive: erlotinib 0.029 | [1] 0.186 | [2] -0.137 | [3] 0.035 | [4] 0.036 | [5] -0.161 | [6] -0.093 | [7] -0.06 | [8] -0.034 | IRAK-1-4 Inhibitor I 0.044 | ibrutinib 0.032 | [9] -0.013 | ralimetinib 0.015 | [10] -0.05 | [11] -0.056 | [12] 0.022 | [13] 0.019 | [14] -0.014 | [15] -0.096 | [16] -0.018

BAZ1B (UniProt Q9UIG0)
inactive: erlotinib -0.022 | [1] -0.024 | [2] -0.026 | [3] 0.005 | [4] -0.016 | [5] 0.034 | [6] 0.001 | [7] 0.039 | [8] -0.029 | IRAK-1-4 Inhibitor I -0.044 | ibrutinib 0.063 | [9] -0.043 | ralimetinib -0.054 | [10] 0.003 | [11] 0.058 | [12] 0.03 | [13] 0.036 | [14] -0.048 | [15] -0.012 | [16] -0.052

BCCIP (UniProt Q9P287)
inactive: erlotinib -0.012 | [1] -0.005 | [2] 0 | [3] 0.027 | [4] 0.007 | [5] 0.007 | [6] 0.011 | [7] 0.024 | [8] 0.006 | IRAK-1-4 Inhibitor I 0.006 | ibrutinib 0.005 | [9] 0 | ralimetinib 0.014 | [10] 0.04 | [11] -0.027 | [12] -0.008 | [13] -0.02 | [14] -0.084 | [15] 0.017 | [16] -0.006

BAP1 (UniProt Q92560)
inactive: erlotinib -0.02 | [1] -0.034 | [2] 0.031 | [3] -0.014 | [4] -0.028 | [5] -0.02 | [6] 0.026 | [7] 0.026 | [8] 0.001 | IRAK-1-4 Inhibitor I 0.009 | ibrutinib 0.016 | [9] 0.013 | ralimetinib 0.031 | [10] -0.003 | [11] 0.004 | [12] 0.057 | [13] -0.015 | [14] 0.035 | [15] -0.002 | [16] 0.01

BABAM1 (UniProt Q9NWV8)
inactive: erlotinib 0.041 | [1] -0.022 | [2] 0.049 | [3] 0.021 | [4] -0.029 | [5] 0 | [6] 0.021 | [7] -0.015 | [8] -0.015 | IRAK-1-4 Inhibitor I -0.04 | ibrutinib 0.047 | [9] 0.003 | ralimetinib 0.023 | [10] 0.003 | [11] -0.037 | [12] -0.009 | [13] 0.035 | [14] -0.004 | [15] 0.008 | [16] -0.006

BAIAP2L1 (UniProt Q9UHR4)
inactive: erlotinib -0.024 | [1] -0.006 | [2] 0.001 | [3] 0.015 | [4] -0.023 | [5] 0.025 | [6] 0.031 | [7] -0.003 | [8] -0.015 | IRAK-1-4 Inhibitor I -0.01 | ibrutinib 0.029 | [9] -0.004 | ralimetinib -0.032 | [10] 0.011 | [11] -0.002 | [12] 0.005 | [13] 0.001 | [14] 0.001 | [15] -0.003 | [16] -0.01

BROX (UniProt Q5VW32)
inactive: erlotinib -0.006 | [1] 0.031 | [2] -0.012 | [3] -0.009 | [4] -0.017 | [5] -0.007 | [6] 0 | [7] 0.006 | [8] -0.025 | IRAK-1-4 Inhibitor I -0.03 | ibrutinib 0.015 | [9] 0 | ralimetinib -0.005 | [10] -0.009 | [11] -0.03 | [12] -0.032 | [13] 0.049 | [14] 0.015 | [15] 0.021 | [16] 0.001

BICD1 (UniProt Q96G01)
inactive: erlotinib 0.002 | [1] -0.013 | [2] 0.012 | [3] 0.008 | [4] -0.039 | [5] 0.023 | [6] 0.025 | [7] -0.024 | [8] 0.038 | IRAK-1-4 Inhibitor I 0.013 | ibrutinib 0.012 | [9] 0.01 | ralimetinib -0.015 | [10] -0.017 | [11] 0.003 | [12] 0.029 | [13] -0.025 | [14] -0.018 | [15] 0.028 | [16] 0.027

BIRC6 (UniProt Q9NR09)
inactive: erlotinib 0.052 | [1] 0.005 | [2] -0.027 | [3] 0.018 | [4] -0.007 | [5] 0.005 | [6] -0.015 | [7] -0.005 | [8] 0.01 | IRAK-1-4 Inhibitor I 0.002 | ibrutinib 0 | [9] -0.002 | ralimetinib 0.014 | [10] -0.015 | [11] -0.025 | [12] 0.008 | [13] 0 | [14] -0.018 | [15] -0.008 | [16] 0.006

BCKDHA (UniProt P12694)
inactive: erlotinib 0.007 | [1] 0.019 | [2] -0.007 | [3] 0.043 | [4] 0.128 | [5] 0.016 | [6] -0.107 | [7] -0.03 | [8] 0.089 | IRAK-1-4 Inhibitor I 0.057 | ibrutinib 0.007 | [9] 0.084 | ralimetinib 0.029 | [10] 0.032 | [11] 0.026 | [12] -0.021 | [13] -0.058 | [14] 0.023 | [15] 0.025 | [16] -0.001

BRD4 (UniProt O60885)
inactive: erlotinib -0.001 | [1] -0.011 | [2] 0.059 | [3] 0.013 | [4] -0.007 | [5] 0.05 | [6] -0.061 | [7] -0.016 | [8] 0.032 | IRAK-1-4 Inhibitor I 0.028 | ibrutinib -0.011 | [9] -0.017 | ralimetinib 0.023 | [10] -0.042 | [11] -0.016 | [12] -0.006 | [13] 0.001 | [14] 0.061 | [15] 0.006 | [16] -0.021
